Measured values reported in the supplement of paper PMC8728848.
The list shows a part of the results.

Legend:
Assay in all cases: glycan array binding signal (z-score within array); higher = stronger binding
Settings in all cases: glycan notation: IUPAC condensed, linker removed
[1] = target: GlcNAc(b1-3)Gal(b1-4)GlcNAc(b1-3)Gal(b1-4)GlcNAc(b1-2)Man(a1-3)[GlcNAc(b1-3)Gal(b1-4)GlcNAc(b1-3)Gal(b1-4)GlcNAc(b1-2)Man(a1-6)]Man(b1-4)GlcNAc(b1-4)[Fuc(a1-6)]GlcNAc
Procedure, shortened: (§1)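 Glycan array binding is given as a within-array Z-score, which can be read as non-binding when negative. The arrays, 3228 of them, came from the Consortium for Functional Glycomics database and were retained only where the protein sequence was available. Z-scores were averaged across arrays of the same protein sequence at different concentrations or buffers and across linkers.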

[2] = target: GlcNAc(b1-3)Gal(b1-4)GlcNAc(b1-3)Gal(b1-4)GlcNAc(b1-2)[GlcNAc(b1-3)Gal(b1-4)GlcNAc(b1-3)Gal(b1-4)GlcNAc(b1-6)]Man(a1-6)[GlcNAc(b1-3)Gal(b1-4)GlcNAc(b1-3)Gal(b1-4)GlcNAc(b1-2)Man(a1-3)]Man(b1-4)GlcNAc(b1-4)[Fuc(a1-6)]GlcNAc
Procedure, shortened: as §1

[3] = target: GlcNAc(b1-3)Gal(b1-4)GlcNAc(b1-3)Gal(b1-4)GlcNAc(b1-3)Gal(b1-4)GlcNAc(b1-2)Man(a1-3)[GlcNAc(b1-3)Gal(b1-4)GlcNAc(b1-3)Gal(b1-4)GlcNAc(b1-3)Gal(b1-4)GlcNAc(b1-2)Man(a1-6)]Man(b1-4)GlcNAc(b1-4)GlcNAc
Procedure, shortened: as §1

[4] = target: GlcNAc(b1-3)Gal(b1-4)GlcNAc(b1-3)Gal(b1-4)GlcNAc(b1-3)Gal(b1-4)GlcNAc(b1-2)Man(a1-3)[GlcNAc(b1-3)Gal(b1-4)GlcNAc(b1-3)Gal(b1-4)GlcNAc(b1-3)Gal(b1-4)GlcNAc(b1-2)Man(a1-6)]Man(b1-4)GlcNAc(b1-4)[Fuc(a1-6)]GlcNAc
Procedure, shortened: as §1

[5] = target: GlcNAc(b1-3)Gal(b1-4)GlcNAc(b1-3)Gal(b1-4)GlcNAc(b1-3)Gal(b1-4)GlcNAc(b1-2)[GlcNAc(b1-3)Gal(b1-4)GlcNAc(b1-3)Gal(b1-4)GlcNAc(b1-3)Gal(b1-4)GlcNAc(b1-6)]Man(a1-6)[GlcNAc(b1-3)Gal(b1-4)GlcNAc(b1-3)Gal(b1-4)GlcNAc(b1-3)Gal(b1-4)GlcNAc(b1-2)Man(a1-3)]Man(b1-4)GlcNAc(b1-4)[Fuc(a1-6)]GlcNAc
Procedure, shortened: as §1

[6] = target: GlcNAc(b1-3)Gal(b1-4)GlcNAc(b1-3)Gal(b1-4)GlcNAc(b1-3)Gal(b1-4)GlcNAc(b1-3)Gal(b1-4)GlcNAc(b1-2)Man(a1-3)[GlcNAc(b1-3)Gal(b1-4)GlcNAc(b1-3)Gal(b1-4)GlcNAc(b1-3)Gal(b1-4)GlcNAc(b1-3)Gal(b1-4)GlcNAc(b1-2)Man(a1-6)]Man(b1-4)GlcNAc(b1-4)GlcNAc
Procedure, shortened: as §1

[7] = target: GlcNAc(b1-3)Gal(b1-4)GlcNAc(b1-3)Gal(b1-4)GlcNAc(b1-3)Gal(b1-4)GlcNAc(b1-3)Gal(b1-4)GlcNAc(b1-2)Man(a1-3)[GlcNAc(b1-3)Gal(b1-4)GlcNAc(b1-3)Gal(b1-4)GlcNAc(b1-3)Gal(b1-4)GlcNAc(b1-3)Gal(b1-4)GlcNAc(b1-2)Man(a1-6)]Man(b1-4)GlcNAc(b1-4)[Fuc(a1-6)]GlcNAc
Procedure, shortened: as §1

[8] = target: GlcNAc(b1-3)Gal(b1-4)GlcNAc(b1-3)Gal(b1-4)GlcNAc(b1-3)Gal(b1-4)GlcNAc(b1-3)Gal(b1-4)GlcNAc(b1-2)[GlcNAc(b1-3)Gal(b1-4)GlcNAc(b1-3)Gal(b1-4)GlcNAc(b1-3)Gal(b1-4)GlcNAc(b1-3)Gal(b1-4)GlcNAc(b1-6)]Man(a1-6)[GlcNAc(b1-3)Gal(b1-4)GlcNAc(b1-3)Gal(b1-4)GlcNAc(b1-3)Gal(b1-4)GlcNAc(b1-3)Gal(b1-4)GlcNAc(b1-2)Man(a1-3)]Man(b1-4)GlcNAc(b1-4)[Fuc(a1-6)]GlcNAc
Procedure, shortened: as §1

[9] = target: GlcNAc(b1-3)Gal(b1-4)GlcNAc(b1-3)Gal(b1-4)GlcNAc(b1-3)GalNAc
Procedure, shortened: as §1

[10] = target: GlcNAc(b1-3)Gal(b1-4)GlcNAc(b1-3)GalNAc
Procedure, shortened: as §1

[11] = target: GlcNAc(b1-3)Gal(b1-4)GlcNAc(b1-3)[GlcNAc(b1-3)Gal(b1-4)GlcNAc(b1-3)]GalNAc
Procedure, shortened: as §1

[12] = target: GlcNAc(b1-3)Gal(b1-4)GlcNAc(b1-6)[Gal(b1-3)]GalNAc
Procedure, shortened: as §1

[13] = target: GlcNAc(b1-3)Gal(b1-4)GlcNAc(b1-6)[GlcNAc(b1-3)Gal(b1-3)]GalNAc
Procedure, shortened: as §1

[14] = target: GlcNAc(b1-3)Gal(b1-4)GlcNAc(b1-6)[GlcNAc(b1-3)]Gal(b1-4)GlcNAc
Procedure, shortened: as §1

GlcNAc(b1-3)GalNAc = target: GlcNAc(b1-3)GalNAc
Procedure, shortened: as §1

GlcNAc(b1-3)Man = target: GlcNAc(b1-3)Man
Procedure, shortened: as §1

[15] = target: GlcNAc(b1-3)[GlcNAc(b1-4)][GlcNAc(b1-6)]GlcNAc
Procedure, shortened: as §1

[16] = target: GlcNAc(b1-3)[GlcNAc(b1-6)]Gal(b1-4)GlcNAc
Procedure, shortened: as §1

[17] = target: GlcNAc(b1-3)[GlcNAc(b1-6)]GalNAc
Procedure, shortened: as §1

[18] = target: GlcNAc(b1-4)Gal(b1-4)GlcNAc
Procedure, shortened: as §1

GlcNAc(b1-4)GlcNAc = target: GlcNAc(b1-4)GlcNAc
Procedure, shortened: as §1

[19] = target: GlcNAc(b1-4)GlcNAc(b1-4)GlcNAc
Procedure, shortened: as §1

[20] = target: GlcNAc(b1-4)GlcNAc(b1-4)GlcNAc(b1-4)GlcNAc(b1-4)GlcNAc
Procedure, shortened: as §1

B1: CM2 (Cordyceps militaris) (protein)
chain: MEIAEQNVGKSCAIVNLIPPKEGSNIWTAKQVTIARNLPPNRGTGRHQIDWSFGPVKVTGYVDTTNWEIGVTVSIMGIDLGTVYGNLRDGVVLNVDLFLAKGQVRFYLKNGNEVWVHLSVEIRFDGKFEGDYKIITV
glycan array binding signal (z-score) [1]: 0.25 | glycan array binding signal (z-score) [2]: 3.55 | glycan array binding signal (z-score) [3]: -0.287 | glycan array binding signal (z-score) [4]: 0.912 | glycan array binding signal (z-score) [5]: 0.039 | glycan array binding signal (z-score) [6]: 0.44 | glycan array binding signal (z-score) [7]: 0.927 | glycan array binding signal (z-score) [8]: 0.787 | glycan array binding signal (z-score) [9]: -1.86 | glycan array binding signal (z-score) [10]: -0.335 | glycan array binding signal (z-score) [11]: 1.04 | glycan array binding signal (z-score) [12]: 0.614 | glycan array binding signal (z-score) [13]: -0.563 | glycan array binding signal (z-score) [14]: 0.308 | glycan array binding signal (z-score) (GlcNAc(b1-3)GalNAc): -0.452 | glycan array binding signal (z-score) (GlcNAc(b1-3)Man): 1.77 | glycan array binding signal (z-score) [15]: -1.22 | glycan array binding signal (z-score) [16]: -0.294 | glycan array binding signal (z-score) [17]: 0.885 | glycan array binding signal (z-score) [18]: 0.025 | glycan array binding signal (z-score) (GlcNAc(b1-4)GlcNAc): 0.445 | glycan array binding signal (z-score) [19]: 1.83 | glycan array binding signal (z-score) [20]: -0.448
